Data reported in publication doi:10.1101/2022.06.06.494986.
Results are given in words; binding and its absence hold for the method and conditions named. Binding seen in cells or lysates may run through a third protein. Some binding calls cover weakened binding; strength is not graded here.

Chains of the proteins cited; added tags and fusions are not shown. Residues count along the entry.
UniProt P20339: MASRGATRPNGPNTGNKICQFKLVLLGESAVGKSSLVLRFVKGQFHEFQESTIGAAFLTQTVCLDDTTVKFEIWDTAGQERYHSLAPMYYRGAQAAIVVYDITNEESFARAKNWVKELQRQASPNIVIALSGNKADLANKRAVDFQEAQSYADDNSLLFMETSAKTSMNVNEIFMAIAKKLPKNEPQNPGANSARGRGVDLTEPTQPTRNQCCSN
UniProt Q9NQT8: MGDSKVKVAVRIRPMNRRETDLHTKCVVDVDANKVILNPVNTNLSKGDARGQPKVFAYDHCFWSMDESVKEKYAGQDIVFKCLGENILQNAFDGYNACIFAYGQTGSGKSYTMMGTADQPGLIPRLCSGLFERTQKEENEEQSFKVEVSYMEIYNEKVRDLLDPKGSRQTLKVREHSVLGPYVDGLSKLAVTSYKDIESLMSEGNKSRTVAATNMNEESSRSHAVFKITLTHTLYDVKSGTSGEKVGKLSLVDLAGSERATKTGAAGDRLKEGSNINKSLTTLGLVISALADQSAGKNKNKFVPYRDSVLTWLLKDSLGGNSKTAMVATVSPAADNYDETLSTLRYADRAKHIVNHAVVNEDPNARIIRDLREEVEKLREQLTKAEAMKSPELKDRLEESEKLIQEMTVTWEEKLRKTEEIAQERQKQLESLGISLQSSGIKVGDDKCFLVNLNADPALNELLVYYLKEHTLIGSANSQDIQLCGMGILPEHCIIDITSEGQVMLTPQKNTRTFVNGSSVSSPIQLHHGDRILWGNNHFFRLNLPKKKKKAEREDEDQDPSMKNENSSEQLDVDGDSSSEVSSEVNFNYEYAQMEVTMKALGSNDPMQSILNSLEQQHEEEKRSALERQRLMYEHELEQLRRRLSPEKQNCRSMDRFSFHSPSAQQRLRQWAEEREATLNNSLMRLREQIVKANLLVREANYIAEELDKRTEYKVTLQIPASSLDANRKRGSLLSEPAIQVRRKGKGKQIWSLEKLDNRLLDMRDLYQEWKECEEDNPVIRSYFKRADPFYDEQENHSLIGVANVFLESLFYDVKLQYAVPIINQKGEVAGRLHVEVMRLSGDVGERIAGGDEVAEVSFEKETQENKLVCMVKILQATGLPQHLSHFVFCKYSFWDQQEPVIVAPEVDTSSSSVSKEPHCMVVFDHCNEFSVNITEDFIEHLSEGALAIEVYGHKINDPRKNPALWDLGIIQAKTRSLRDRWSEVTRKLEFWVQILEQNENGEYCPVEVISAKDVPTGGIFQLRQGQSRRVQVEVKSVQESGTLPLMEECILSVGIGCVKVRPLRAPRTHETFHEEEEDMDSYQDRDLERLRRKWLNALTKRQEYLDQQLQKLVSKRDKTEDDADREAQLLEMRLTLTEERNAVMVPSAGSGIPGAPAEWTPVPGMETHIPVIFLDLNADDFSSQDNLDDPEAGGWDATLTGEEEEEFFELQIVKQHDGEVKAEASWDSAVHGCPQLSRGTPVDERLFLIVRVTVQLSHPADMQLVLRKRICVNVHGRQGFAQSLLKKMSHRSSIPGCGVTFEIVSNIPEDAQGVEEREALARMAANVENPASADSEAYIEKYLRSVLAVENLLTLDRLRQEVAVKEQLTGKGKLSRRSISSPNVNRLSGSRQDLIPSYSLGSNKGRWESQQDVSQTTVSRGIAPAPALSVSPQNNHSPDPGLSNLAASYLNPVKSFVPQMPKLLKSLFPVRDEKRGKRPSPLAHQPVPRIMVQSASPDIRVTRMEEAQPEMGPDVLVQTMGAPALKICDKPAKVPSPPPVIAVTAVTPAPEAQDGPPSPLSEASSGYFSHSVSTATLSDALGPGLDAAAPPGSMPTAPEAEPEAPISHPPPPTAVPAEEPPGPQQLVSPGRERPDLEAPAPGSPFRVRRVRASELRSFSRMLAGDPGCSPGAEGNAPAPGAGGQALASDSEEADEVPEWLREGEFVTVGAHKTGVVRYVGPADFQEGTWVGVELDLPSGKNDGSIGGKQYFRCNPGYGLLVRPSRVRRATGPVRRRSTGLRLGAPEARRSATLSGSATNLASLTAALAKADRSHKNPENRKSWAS
UniProt P35968, residues 20-1356: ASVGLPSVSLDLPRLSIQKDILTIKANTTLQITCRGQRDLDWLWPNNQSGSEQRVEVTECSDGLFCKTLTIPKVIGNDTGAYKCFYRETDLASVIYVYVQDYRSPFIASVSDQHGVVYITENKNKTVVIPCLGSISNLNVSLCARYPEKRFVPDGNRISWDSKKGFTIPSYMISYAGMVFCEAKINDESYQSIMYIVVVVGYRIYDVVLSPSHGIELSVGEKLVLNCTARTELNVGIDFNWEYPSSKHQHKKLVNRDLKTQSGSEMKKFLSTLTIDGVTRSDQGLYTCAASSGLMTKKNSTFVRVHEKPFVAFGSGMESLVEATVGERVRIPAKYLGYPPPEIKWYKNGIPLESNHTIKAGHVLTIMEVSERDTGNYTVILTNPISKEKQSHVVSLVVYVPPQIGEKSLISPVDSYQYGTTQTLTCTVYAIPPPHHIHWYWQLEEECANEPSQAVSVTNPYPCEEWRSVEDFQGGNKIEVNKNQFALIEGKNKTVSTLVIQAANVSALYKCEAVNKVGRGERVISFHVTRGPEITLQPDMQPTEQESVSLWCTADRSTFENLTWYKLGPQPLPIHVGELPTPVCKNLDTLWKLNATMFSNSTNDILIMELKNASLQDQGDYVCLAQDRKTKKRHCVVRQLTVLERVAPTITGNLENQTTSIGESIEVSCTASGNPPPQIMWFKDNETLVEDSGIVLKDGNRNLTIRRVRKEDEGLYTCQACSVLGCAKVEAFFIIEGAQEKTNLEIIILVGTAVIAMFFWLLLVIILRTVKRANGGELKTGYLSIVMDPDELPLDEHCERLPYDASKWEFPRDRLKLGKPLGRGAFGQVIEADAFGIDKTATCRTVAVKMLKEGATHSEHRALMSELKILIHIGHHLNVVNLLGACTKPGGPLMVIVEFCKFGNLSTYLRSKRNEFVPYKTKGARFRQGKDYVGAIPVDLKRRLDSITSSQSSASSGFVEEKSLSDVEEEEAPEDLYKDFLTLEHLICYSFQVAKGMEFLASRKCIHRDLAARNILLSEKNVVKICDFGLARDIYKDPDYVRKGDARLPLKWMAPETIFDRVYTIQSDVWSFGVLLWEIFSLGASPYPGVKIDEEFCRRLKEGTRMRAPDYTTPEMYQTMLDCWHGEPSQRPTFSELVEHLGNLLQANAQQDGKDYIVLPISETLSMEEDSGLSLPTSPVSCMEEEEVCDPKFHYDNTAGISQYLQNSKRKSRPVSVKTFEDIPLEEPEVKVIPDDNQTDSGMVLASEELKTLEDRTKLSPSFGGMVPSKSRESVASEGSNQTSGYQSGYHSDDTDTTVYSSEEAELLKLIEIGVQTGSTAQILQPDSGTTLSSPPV

Target: Rab5A (human (endogenous in hREC)) (UniProt P20339)
Test: co-IP

Row | Substance | binding
1 | KIF13B (from UniProt Q9NQT8 1-1826) | binds
2 | VEGFR2 (from UniProt P35968 20-1356) (receptor) | binds
